Measured values published in PMC7229175.
These are yes or no findings as the source states them, for the method shown. In cells and extracts the contact can be indirect. Some entries that bind do so weakly or less than the wild type.

The chains behind the UniProt entries cited, without tags or fusion partners.
UniProt P84078: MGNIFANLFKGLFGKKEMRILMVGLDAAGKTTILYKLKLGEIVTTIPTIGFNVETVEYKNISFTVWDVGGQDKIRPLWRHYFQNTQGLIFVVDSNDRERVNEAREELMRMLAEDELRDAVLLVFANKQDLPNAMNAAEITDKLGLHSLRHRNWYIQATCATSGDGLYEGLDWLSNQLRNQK
UniProt P61205: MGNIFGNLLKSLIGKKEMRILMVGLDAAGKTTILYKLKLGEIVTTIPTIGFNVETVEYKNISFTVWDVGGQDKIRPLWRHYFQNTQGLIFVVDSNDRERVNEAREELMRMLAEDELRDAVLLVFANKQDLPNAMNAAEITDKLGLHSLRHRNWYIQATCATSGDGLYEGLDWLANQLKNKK
UniProt G3X9K3: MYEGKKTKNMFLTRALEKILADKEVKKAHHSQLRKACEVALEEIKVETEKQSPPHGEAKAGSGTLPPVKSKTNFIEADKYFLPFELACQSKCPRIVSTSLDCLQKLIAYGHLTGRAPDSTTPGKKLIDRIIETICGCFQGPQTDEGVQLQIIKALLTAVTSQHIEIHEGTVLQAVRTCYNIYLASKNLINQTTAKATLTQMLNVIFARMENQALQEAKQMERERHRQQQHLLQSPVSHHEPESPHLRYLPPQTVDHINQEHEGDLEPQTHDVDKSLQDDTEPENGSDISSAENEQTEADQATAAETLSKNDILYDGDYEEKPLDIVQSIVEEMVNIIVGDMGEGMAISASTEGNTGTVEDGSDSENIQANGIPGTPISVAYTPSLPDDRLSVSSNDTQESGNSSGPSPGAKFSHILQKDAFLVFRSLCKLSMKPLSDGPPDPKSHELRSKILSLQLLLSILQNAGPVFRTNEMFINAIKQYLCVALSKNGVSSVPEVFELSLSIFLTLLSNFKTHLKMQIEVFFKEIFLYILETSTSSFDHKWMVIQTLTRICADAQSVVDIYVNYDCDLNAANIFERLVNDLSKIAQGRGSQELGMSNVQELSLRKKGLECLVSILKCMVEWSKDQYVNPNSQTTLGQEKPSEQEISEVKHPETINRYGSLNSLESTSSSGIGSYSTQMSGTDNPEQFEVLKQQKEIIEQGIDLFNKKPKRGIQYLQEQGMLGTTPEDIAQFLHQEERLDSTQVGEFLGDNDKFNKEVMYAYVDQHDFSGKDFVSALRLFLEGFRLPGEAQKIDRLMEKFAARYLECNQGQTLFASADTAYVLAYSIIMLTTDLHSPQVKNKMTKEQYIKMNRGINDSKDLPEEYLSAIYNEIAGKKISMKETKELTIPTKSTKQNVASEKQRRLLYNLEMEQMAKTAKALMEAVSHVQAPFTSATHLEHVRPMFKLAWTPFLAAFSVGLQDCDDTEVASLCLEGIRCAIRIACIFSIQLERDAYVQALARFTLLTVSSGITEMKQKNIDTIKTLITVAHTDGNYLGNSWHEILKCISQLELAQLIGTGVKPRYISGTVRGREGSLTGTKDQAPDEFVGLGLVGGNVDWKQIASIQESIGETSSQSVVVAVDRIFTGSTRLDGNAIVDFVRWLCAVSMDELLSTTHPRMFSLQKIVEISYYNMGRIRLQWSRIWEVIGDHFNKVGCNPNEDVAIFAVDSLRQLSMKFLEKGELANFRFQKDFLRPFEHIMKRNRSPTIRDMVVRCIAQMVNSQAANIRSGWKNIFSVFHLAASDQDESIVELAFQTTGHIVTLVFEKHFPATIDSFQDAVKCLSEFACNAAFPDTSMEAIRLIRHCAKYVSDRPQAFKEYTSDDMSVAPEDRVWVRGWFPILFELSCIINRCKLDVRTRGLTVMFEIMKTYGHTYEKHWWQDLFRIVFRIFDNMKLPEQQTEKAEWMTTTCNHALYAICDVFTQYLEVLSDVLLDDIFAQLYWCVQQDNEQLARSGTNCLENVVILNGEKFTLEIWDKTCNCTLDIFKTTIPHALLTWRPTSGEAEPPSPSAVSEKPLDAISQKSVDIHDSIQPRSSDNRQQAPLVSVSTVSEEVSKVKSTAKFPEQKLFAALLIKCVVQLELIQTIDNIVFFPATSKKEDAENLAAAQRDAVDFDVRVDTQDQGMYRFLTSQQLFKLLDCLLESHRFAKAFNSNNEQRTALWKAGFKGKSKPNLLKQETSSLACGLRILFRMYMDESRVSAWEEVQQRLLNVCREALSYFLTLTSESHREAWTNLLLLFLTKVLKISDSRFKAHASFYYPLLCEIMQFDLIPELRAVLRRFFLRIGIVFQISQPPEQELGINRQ

Experiments:
[1] = target: Myc-tagged ARF1 (Myc-mARF1) (mouse) (UniProt P84078); assay: co-IP; lysates of WT BMDMs transfected with Myc-ARF1 or Myc-ARF3, incubated with anti-Myc agarose 6 h at 4 °C; lysis buffer 50 mM Tris-HCl pH 7.5, 150 mM NaCl, 1% Nonidet P40, 0.1% SDS-Na; western blot (the legend calls it a pull-down assay)
[2] = target: Myc-tagged ARF3 (Myc-mARF3) (mouse) (UniProt P61205); assay: as above
[3] = target: Brefeldin A-inhibited guanine nucleotide-exchange factor 1 (BIG1) (mouse (endogenous in BMDMs)) (UniProt G3X9K3); assay: co-IP; lysates of WT BMDMs with or without LPS (100 ng/ml, 30 min), immunoprecipitation with BIG1 antibody, western blot; both proteins endogenous

Row | Substance | binding [1] | binding [2] | binding [3]
1 | Brefeldin A-inhibited guanine nucleotide-exchange factor 1 (BIG1) (from UniProt G3X9K3 1-1846) | no binding | binds | –
2 | endogenous ARF3 (from UniProt P61205 1-181) | – | – | binds
